A short description of this data set: Compaction characterization by Heckel analysis (yield pressure, strain rate sensitivity, crushing strength). In kind it is physicochemical. The conditions noted are these: for crushing strength at slow speed: 0.1 mm/s; for crushing strength at slow speed / crushing strength at fast speed: 10 mm compacts; for crushing strength at fast speed: 300 mm/s; for Strain rate sensitivity (SRS): fast vs slow yield pressure; for yield pressure, slow speed: punch speed 0.1 mm/s; for yield pressure, fast press speed: punch speed 300 mm/s. The method, then:
The aim of the Heckel test is to compress the material under controlled conditions to derive the yield pressure of the bulk material. A known weight of material is compressed within a 10 mm diameter die with flat faced punches moving at a set speed. The force on the punch is accurately measured at frequent intervals whilst the displacement of the punches is used to calculate the volume of the powder. The yield pressure is calculated at slow and fast punch speeds to assess the time-dependent component to deformation of the material.
A known weight of pure drug is compacted to theoretical zero porosity using 10 mm diameter flat faced punches. The Compaction Simulator was used under the following conditions:
During compression the location of the punch tips are accurately determined, and the force measured by load cells producing a record of the primary compression parameters. Temperature and humidity were monitored at intervals during the test.
The data were analyzed by the Compaction Analysis software program to generate values for yield pressure (Py) using the Heckel equation:
where • D=the relative density of the compact; • P=Pressure applied; and • K=Gradient of the line in the linear region; [Reference: R. W. Heckel. Trans. Metall. Soc. AIME 221 (1961)1001-1008].
For some materials, the deformation characteristics change with rate of applied force. This can be estimated by calculating the Strain Rate Sensitivity. The yield pressure at high speed compression is compared to that at slow speed using the following equation: […]

Structures can show the parent of a compound that is named as a salt. Where two headings read alike, the source gives them in different places.

Regarding `COC[C@@]1(O)CC[C@@]2(C)[C@@H](CC[C@@H]3[C@@H]2CC[C@]2(C)[C@@H](C(=O)Cn4ccnc4)CC[C@@H]32)C1` [Compound 1 hemi-citrate salt Form I], the “crushing strength at slow speed” value is listed as 14.2-15.2 kiloponds; the “crushing strength at fast speed” value is on record as 4.4-5.6 kiloponds; the “Strain rate sensitivity (SRS)” value is listed as 21.4%; the “yield pressure, slow speed” value is listed as 69 MPa.

With `COC[C@@]1(O)CC[C@@]2(C)[C@@H](CC[C@@H]3[C@@H]2CC[C@]2(C)[C@@H](C(=O)Cn4ccnc4)CC[C@@H]32)C1` [Compound 1 hemi-citrate salt], the compaction properties classification entry is “soft ductile” and the “yield pressure, fast press speed” value stood at 84 MPa.

Take `COC[C@@]1(O)CC[C@@]2(C)[C@@H](CC[C@@H]3[C@@H]2CC[C@]2(C)[C@@H](C(=O)Cn4ccnc4)CC[C@@H]32)C1.O=C(O)CC(O)(CC(=O)O)C(=O)O` [Compound 1 mono-citrate salt Form A]: the “crushing strength at slow speed” value is 15.6-18 kiloponds; the “crushing strength at fast speed” value is on record as 5-12.4 kiloponds; the “Strain rate sensitivity (SRS)” value is 28.7%; the “yield pressure, slow speed” value was determined as 84 MPa.

Turning to `COC[C@@]1(O)CC[C@@]2(C)[C@@H](CC[C@@H]3[C@@H]2CC[C@]2(C)[C@@H](C(=O)Cn4ccnc4)CC[C@@H]32)C1.O=C(O)CC(O)(CC(=O)O)C(=O)O` [Compound 1 mono-citrate salt], the “yield pressure, fast press speed” value is given as 109 MPa. For the same molecule, for the setting “from slow speed yield pressure”, the compaction properties classification entry is given as “moderately brittle/ductile”.

Source of the values: US20240190910A1, “HEMI-CITRATE SALTS OF GABA-A POSITIVE […] AND CRYSTALLINE FORM THEREOF” (priority 2021, published 2024).
